Test results from PubChem BioAssay AID1347426 (Functional Genomics Laboratory (NCATS/FGL), 2020).
In all, about 31,000 sequences went through this assay and about 1,400 (4.5%) were called active.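 The calls were made as follows: active = median seed-adjusted z-score above 1 or below -1; inactive = the rest.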 Some of the results follow.

Test: Novel Modifiers of Survival Motor Neuron (SMN) Protein: Gene Identification via Genome-wide siRNA Screen;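 also: luminescence tracks full-length SMN protein made from the SMN2 reporter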
Details: HEK293T SMN2-luciferase reporter, siRNA knockdown, 72 h; actives lie on both sides
Procedure, shortened: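 HEK293T cells stably carrying an SMN2 promoter/splicing cassette–luciferase reporter were reverse-transfected with 1 pmol siRNA per well (druggable-genome library, 3 siRNAs per gene) and grown 72 h at 37 °C. Luminescence, normalized to negative-control siRNA and log10-transformed, was scored as MAD.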

| Sequence | median seed-adjusted z-score |
| --- | --- |
| ACUGUUUAUUGCUAAAGAATT against P2RY13 | inactive: -0.0427 |
| GGGAAUCCAUAGACGGAAATT against GOLGB1 | inactive: 0.0851 |
| ACUUCAACCAGGCACUCAATT against BLOC1S1 | inactive: 0.0692 |
| GGCCUACAACUGUGGGUUATT against PIR | inactive: 0.169 |
| CGCUCGAGGUUAUGGAACATT against ITGA6 | inactive: -0.224 |
| GCACAUGCUUGACUAUCUUTT against ELMO3 | inactive: -0.0898 |
| GACUAGAAGCUCAACUGAATT against CCNG1 | inactive: 0.131 |
| GCAUUGCCCUUUCCUUCGATT against TEP1 | inactive: -0.495 |
| GCCUGGACCGUUAACGAUATT against HMCN1 | inactive: 0.00218 |
| GGCAUAGCUGGAUCCAGGATT against GPR77 | inactive: 0 |
| GCAGCUUCAAGAUUUGUAATT against C1D | inactive: 0.021 |
| AGGCUUAUUUUCACAGAAUTT against HRASLS3 | inactive: 0.085 |
| GCACGGAGCCUAUUUCGUATT against TAF6L | inactive: 0 |
| CCCUGCAAGUUACCACAUATT against HYAL4 | inactive: -0.236 |
| GUUUCUACUCGGGAACAAATT against JUND | inactive: -0.334 |
| GCAUUCGUGUGGGCAAGAATT against ACSBG2 | inactive: 0.027 |
| CCCUCUACGUCUCCACCAATT against PROKR2 | inactive: 0.328 |
| GAAUGGAUUUGGUGGUGAATT against RABL4 | inactive: -0.154 |
| GAGACAAUAUCUUCCGUAATT against RRAGA | inactive: 0.511 |
| GGCUAUCACUUCAAUGUCATT against NR1I2 | inactive: -0.922 |
| CCCAAGCGCAAGAUCCUUATT against SCUBE3 | inactive: 0.152 |
| GCUAUGAACUUGACUGGAATT against RASL10A | inactive: 0.151 |
| CCUCGACCCUGUUUCUUAUTT against ARL4D | inactive: -0.523 |

| Sequence | median seed-adjusted z-score |
| --- | --- |
| GGGUCUUCCUAGCACAUCATT against PPM1D | inactive: -0.66 |
| GGUGAUGAGUGUUCCUACATT against KCNA4 | inactive: -0.634 |
| GCACCUCAGAGACCAGUGATT against SSH3 | inactive: -0.0772 |
| AGCGAUCUGUGCUCAACAATT against CACNB3 | inactive: 0.573 |
| GGAUAAGACGGUCCGUAAATT against MYO5A | inactive: 0.00798 |
| UCAUCUUAAAGGACCGAUATT against SEC11B | active: 1.04 |
| GUCAAGAAGUUGUAAGAGATT against PPIG | inactive: -0.0192 |
| GGGUGGCAGGUAUAAGACUTT against P2RY11 | inactive: 0.211 |
| CCUUGAUAACAGUACAGAATT against PHEX | inactive: -0.0314 |
| GCCGAUAUGUACAACAGAATT against TIMM10 | inactive: 0.0738 |
| ACUUCAGGAUGGUCGCAGATT against SP140 | inactive: 0.186 |
| CCUGCGUCUCUACAACUAUTT against AURKB | inactive: 0.0901 |
| UCAGUGCUCUGGACAGUAATT against SMARCD3 | inactive: 0.247 |
| GGAGAAUGCAAUCCGCUUATT against SVIL | inactive: 0.0852 |
| GGUUCGCUAUCAGAAGUCATT against GBX2 | inactive: -0.442 |
| AGUUCUACCCUCUAGUGAATT against FZD1 | inactive: -0.163 |
| GCCUCACCUCAAUUGCAAATT against ANP32D | inactive: -0.714 |
| GACUGGAAUUGGUAGAAUUTT against SYT9 | inactive: 0.0419 |
| CAAGGAAAGUAUUCCGAAUTT against ZC3HC1 | inactive: -0.859 |
| GAUCAUUAGUUGAAUCGGUTT against PPA2 | inactive: -0.497 |
| GCAUUGCUACUACGAGCUATT against TOMM70A | inactive: 0.0717 |
| GAAUGUCCUAUGAUGCAUATT against HERC5 | inactive: -0.422 |
| GGAAAUGUUGGAGAACUCATT against RARA | inactive: -0.0195 |

For convenience, part of the list above.

| Sequence | median seed-adjusted z-score |
| --- | --- |
| ACUUCAGGAUGGUCGCAGATT against SP140 | inactive: 0.186 |
| CCUGCGUCUCUACAACUAUTT against AURKB | inactive: 0.0901 |

Carrying on.

| Sequence | median seed-adjusted z-score |
| --- | --- |
| ACAGCUACCAAAUAGCGAATT against RAET1G | inactive: -0.0655 |
| CUACUGAAGUGACACUCUATT against STK36 | inactive: -0.0489 |
| CCAUCAUGAUGCUAGCUAUTT against AP3B2 | active: -2.45 |
| AGACCAUCACCAUAAUUUATT against SEC14L2 | inactive: -0.253 |
| CCACAUCUCUACUCGUGAATT against ULK4 | inactive: 0.0834 |
| CAAACUCCAUAAUACGGUATT against ASH1L | inactive: -0.197 |
| GGUGUUCCCUUCGUCCGAATT against ALDOC | inactive: 0.119 |
| GCAAAAAGAGCGAUCAGAATT against CNDP1 | inactive: 0.203 |
| GGAUCUCAUGAGGCGAAUATT against EIF5 | inactive: 0.362 |
| GAUCUUGCAUAGUUUACCATT against AP4B1 | inactive: 0.0278 |
| GCCGCAACCUAGACAUCGATT against TUBA4A | inactive: -0.594 |
| CAAUGACACCUGCAAGUAUTT against CD300A | inactive: -0.414 |
| AGAGAAGACAUAUAGGAGATT against ZNF33A | inactive: 0.0628 |
| GAAUAUGCACUGAAUAUGATT against ZNF484 | inactive: 0.2 |
| CCCUUCUACGUGCUCAACATT against SSTR3 | inactive: 0 |
| GGAUCACCUACAUUAGCAATT against TLR2 | inactive: -0.0278 |
| GAGUCAUAGUUGCAGCUGATT against PSMB5 | active: -1.37 |
| GGAGCGAAAUGUUCAGGUUTT against PSPH | inactive: -0.518 |
| ACAGAGCAGUUCUCCUUUATT against CRYM | inactive: -0.373 |
| GCGUGUUCGUGCACGUCUATT against MOBKL2A | inactive: 0.268 |
| GCAUCGCACAGGUGGUCUATT against SLC25A22 | inactive: -0.444 |
| ACUCCUGUAUAUAUUCAAATT against TNFRSF9 | inactive: 0.859 |
